This passage reports binding results from article PMC4263359, “Vesicular Stomatitis Virus Polymerase's Strong Affinity to Its Template Suggests Exotic Transcription Models” (PLoS Computational Biology, 2014).

By UniProt entry, the sequences of proteins in these tests, tags left out.
UniProt P03521: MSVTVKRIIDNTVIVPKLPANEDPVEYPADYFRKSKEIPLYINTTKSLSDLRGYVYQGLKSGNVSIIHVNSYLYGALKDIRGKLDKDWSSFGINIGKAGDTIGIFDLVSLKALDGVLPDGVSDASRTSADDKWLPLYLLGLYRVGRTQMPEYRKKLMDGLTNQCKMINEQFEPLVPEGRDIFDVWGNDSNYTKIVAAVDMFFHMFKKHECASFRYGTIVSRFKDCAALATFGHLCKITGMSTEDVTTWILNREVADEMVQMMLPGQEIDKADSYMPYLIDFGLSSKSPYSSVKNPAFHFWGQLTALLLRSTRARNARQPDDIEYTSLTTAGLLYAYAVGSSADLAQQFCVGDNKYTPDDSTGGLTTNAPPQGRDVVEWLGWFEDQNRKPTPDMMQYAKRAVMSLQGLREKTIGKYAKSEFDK
UniProt P03520: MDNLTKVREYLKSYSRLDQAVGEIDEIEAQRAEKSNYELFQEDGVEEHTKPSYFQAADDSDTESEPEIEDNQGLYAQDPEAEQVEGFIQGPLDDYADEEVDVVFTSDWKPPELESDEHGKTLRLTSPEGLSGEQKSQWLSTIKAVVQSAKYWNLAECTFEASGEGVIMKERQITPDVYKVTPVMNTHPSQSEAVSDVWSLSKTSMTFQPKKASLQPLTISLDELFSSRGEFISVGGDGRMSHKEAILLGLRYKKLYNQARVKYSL

These are yes or no findings as the source states them, for the method shown. Binding seen in cells or lysates may run through a third protein. Some binding calls cover weakened binding; strength is not graded here.

The experiment has as its target VSV nucleoprotein N of the genome template (N-RNA) (vesicular stomatitis virus (endogenous in virions)) (UniProt P03521). Nature of the experiment: co-sedimentation.

Take “VSV phosphoprotein P (from UniProt P03520 1-265)”: the binding result is on record as “binds”.
